The text below walks through data of article PMC4468860.

Sequences of proteins named here, by UniProt entry; tags and fusion partners are left off. Residues count along the entry.
UniProt Q3UH93, residues 49-1925: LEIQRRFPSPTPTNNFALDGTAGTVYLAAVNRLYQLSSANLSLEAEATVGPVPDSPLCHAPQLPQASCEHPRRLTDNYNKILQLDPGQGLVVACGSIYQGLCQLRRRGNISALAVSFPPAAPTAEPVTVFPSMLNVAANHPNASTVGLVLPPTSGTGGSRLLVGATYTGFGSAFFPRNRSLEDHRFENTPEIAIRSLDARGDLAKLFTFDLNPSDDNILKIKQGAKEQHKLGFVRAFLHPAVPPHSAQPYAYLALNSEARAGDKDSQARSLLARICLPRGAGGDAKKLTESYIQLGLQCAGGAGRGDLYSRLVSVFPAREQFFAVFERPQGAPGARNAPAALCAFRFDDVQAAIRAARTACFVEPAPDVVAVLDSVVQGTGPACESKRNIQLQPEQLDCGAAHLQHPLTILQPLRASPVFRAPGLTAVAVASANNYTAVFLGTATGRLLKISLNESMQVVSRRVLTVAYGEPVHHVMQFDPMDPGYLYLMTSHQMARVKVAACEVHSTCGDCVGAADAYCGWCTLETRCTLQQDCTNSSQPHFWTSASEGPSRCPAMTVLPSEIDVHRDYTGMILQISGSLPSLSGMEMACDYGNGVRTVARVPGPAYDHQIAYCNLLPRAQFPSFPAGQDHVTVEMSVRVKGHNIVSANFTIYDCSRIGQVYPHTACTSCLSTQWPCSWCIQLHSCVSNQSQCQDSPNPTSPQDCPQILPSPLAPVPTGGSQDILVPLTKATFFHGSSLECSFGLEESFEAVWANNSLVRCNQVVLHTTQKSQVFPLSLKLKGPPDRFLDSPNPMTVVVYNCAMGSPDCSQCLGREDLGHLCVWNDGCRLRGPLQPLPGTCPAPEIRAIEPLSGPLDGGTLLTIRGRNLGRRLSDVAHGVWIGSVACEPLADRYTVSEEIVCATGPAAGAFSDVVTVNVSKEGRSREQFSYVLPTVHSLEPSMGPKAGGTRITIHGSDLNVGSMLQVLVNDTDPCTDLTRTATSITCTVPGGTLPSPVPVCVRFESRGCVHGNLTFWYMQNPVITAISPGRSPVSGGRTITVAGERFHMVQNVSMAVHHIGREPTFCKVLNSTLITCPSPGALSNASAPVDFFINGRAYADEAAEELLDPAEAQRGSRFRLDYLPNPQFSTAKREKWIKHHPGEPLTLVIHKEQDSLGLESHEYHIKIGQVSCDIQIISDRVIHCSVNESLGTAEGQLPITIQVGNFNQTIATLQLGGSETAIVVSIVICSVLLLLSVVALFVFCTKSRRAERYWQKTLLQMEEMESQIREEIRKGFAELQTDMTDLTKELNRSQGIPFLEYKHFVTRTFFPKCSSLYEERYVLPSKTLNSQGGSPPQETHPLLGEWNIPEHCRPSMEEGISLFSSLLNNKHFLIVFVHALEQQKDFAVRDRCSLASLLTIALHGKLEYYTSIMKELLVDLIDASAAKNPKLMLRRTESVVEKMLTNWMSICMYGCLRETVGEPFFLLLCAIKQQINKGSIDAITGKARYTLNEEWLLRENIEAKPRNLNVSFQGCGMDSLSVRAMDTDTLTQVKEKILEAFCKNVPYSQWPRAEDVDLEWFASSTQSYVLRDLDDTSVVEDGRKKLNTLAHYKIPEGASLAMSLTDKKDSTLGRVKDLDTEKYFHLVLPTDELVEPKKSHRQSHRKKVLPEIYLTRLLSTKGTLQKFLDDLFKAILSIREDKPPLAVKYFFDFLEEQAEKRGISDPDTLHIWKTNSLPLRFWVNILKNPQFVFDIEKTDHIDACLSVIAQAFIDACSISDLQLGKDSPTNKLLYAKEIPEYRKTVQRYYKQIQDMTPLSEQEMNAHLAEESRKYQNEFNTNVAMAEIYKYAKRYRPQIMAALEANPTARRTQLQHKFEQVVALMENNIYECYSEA
UniProt P35918, residues 20-1345: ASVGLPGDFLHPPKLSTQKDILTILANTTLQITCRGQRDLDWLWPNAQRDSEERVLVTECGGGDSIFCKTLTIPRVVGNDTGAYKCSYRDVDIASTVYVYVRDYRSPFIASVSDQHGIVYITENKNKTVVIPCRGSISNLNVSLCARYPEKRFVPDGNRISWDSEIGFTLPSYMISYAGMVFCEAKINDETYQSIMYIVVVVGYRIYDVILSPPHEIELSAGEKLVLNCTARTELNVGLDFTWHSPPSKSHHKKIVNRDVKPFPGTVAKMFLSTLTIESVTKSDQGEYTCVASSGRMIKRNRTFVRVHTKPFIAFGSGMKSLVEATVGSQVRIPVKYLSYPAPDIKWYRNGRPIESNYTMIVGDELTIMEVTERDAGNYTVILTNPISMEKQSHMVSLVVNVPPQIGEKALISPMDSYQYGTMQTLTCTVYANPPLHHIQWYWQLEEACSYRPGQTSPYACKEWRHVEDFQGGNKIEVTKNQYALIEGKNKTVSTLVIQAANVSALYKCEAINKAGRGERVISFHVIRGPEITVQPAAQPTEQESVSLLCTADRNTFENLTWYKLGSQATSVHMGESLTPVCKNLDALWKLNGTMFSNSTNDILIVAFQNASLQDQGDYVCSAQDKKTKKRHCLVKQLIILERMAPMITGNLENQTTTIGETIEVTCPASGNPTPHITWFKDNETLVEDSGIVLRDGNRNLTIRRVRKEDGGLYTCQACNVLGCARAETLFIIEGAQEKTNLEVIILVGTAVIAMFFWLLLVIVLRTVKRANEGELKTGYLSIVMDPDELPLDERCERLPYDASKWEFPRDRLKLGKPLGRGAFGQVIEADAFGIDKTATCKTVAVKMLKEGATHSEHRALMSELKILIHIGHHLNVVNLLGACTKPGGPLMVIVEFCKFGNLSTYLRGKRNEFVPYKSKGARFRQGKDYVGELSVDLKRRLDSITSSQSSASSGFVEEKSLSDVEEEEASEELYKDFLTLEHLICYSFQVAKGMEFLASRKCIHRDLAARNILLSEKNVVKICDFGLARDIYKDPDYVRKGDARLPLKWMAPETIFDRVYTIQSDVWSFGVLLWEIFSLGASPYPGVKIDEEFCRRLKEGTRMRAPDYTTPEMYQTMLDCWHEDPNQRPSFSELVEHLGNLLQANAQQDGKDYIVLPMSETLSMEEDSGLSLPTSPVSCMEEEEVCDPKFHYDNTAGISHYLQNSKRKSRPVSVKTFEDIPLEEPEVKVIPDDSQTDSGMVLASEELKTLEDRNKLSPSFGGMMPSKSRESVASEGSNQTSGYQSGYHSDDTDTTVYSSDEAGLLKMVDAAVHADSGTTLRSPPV
UniProt Q9Z0R4: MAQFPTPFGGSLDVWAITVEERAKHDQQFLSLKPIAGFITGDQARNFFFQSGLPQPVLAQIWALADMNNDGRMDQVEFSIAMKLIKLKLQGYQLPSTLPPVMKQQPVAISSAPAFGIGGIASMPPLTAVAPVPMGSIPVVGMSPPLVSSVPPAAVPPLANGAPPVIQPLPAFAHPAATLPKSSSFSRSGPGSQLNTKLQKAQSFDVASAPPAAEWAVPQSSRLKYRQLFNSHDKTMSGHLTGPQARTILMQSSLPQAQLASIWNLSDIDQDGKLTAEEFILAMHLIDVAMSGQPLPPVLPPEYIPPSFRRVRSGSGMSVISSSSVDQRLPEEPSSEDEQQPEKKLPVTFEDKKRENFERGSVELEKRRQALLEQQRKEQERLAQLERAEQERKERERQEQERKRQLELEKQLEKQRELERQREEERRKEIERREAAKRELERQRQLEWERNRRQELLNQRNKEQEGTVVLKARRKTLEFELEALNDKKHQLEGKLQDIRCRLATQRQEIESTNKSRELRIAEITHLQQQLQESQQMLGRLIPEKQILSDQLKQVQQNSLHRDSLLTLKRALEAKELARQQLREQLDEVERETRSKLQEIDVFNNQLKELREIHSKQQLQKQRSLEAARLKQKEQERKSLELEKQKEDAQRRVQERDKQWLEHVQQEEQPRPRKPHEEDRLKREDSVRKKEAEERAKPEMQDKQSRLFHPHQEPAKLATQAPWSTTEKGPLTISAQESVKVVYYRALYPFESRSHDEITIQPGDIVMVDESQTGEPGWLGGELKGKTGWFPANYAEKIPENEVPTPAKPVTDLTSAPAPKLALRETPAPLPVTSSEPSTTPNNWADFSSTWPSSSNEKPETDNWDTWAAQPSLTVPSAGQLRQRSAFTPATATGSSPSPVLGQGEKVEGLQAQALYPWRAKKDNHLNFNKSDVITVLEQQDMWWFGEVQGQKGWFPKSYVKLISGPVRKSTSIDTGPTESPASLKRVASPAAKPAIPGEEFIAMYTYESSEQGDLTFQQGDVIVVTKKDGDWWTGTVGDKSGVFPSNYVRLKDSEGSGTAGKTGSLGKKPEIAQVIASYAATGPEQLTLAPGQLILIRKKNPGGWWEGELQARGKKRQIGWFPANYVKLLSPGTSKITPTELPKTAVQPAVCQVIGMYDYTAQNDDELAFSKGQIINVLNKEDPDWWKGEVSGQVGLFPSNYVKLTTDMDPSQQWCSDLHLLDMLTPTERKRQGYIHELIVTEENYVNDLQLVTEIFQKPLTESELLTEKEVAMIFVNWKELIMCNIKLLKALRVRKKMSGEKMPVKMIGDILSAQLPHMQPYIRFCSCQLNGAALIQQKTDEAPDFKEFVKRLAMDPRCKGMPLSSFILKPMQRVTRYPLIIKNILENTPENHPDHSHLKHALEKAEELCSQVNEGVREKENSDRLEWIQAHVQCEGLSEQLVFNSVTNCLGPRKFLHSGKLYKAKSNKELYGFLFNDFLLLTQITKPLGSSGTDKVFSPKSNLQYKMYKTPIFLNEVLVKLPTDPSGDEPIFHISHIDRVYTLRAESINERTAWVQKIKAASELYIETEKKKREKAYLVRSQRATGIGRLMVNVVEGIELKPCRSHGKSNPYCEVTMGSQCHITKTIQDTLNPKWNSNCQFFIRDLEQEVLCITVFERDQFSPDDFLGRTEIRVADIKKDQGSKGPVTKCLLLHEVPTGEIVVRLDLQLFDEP

No constants are given. Whether binding was seen depends on the method and setting. Binding seen in cells or lysates may run through a third protein. Some binding calls cover weakened binding; strength is not graded here. For part of these data: Where a sequence is shown, tags or fusion partners need not be part of it.

The target in one assay is T1, GST-LNt (rat) (UniProt Q63560).
T1 sequence: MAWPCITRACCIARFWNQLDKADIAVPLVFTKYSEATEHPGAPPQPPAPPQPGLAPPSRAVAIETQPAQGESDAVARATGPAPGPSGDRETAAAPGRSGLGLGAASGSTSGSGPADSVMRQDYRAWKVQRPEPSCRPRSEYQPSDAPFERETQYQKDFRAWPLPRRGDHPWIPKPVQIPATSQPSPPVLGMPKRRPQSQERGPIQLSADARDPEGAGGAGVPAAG
The experiment in a line: pull-down; GST-LNt on glutathione-sepharose beads incubated with postnatal brain lysate; blots probed with anti-p85 or anti-intersectin; only the target purified.

The target in assay [1] is PlexinD1 (UniProt Q3UH93). The experiment in a line: co-IP; HEK293T17 cells expressing PlxD1, Nrp1, VEGFR2 and MAP6-E-GFP together; immunoprecipitation with goat anti-PlexinD1 or goat anti-Neuropilin, Dynabeads Protein G, washes up to 500 mM NaCl; western blot.
The target of assay [2] is Neuropilin1 (UniProt P97333). The assay is described as above.
Assay [3] addresses Neuropilin1 (UniProt P97333). The experiment in a line: co-IP; HEK293T17 cells expressing PlxD1, Nrp1 or VEGFR2 individually in combination with MAP6-E-GFP; immunoprecipitation of the receptor; western blot. On the technique in general: In western blotting, separated proteins are transferred to a membrane and probed.
The target in assay [4] is vascular endothelial growth factor receptor 2 (UniProt P35918). The assay is described as above.
Assay [5] has as its target PlexinD1 (UniProt Q3UH93). The description is as above.

Take “intersectin1 isoforms (endogenous) (from UniProt Q9Z0R4 1-1714)”: the binding result with GST-LNt (rat) was “binds”. As for “vascular endothelial growth factor receptor 2 (from UniProt P35918 20-1345)”, in the assay with PlexinD1 [1], the binding result is “binds”. Consider “PlexinD1 (from UniProt Q3UH93 49-1925) (receptor)”, for which the binding entry with Neuropilin1 [2] is “binds”. Turning to “Neuropilin1 (from UniProt P97333 22-923) (receptor)”, the binding entry with PlexinD1 [1] is “binds”. As to MAP6-E-GFP (from UniProt Q63560 1-614), the binding result (with Neuropilin1 [2]; with PlexinD1 [1]; with Neuropilin1 [3]; in assay [4]; in the assay with PlexinD1 [5]) was “binds” in each case.
